Primary screen of a compound library

Protein sequences, listed by entry. Tags and fused reporters are not part of them.
UniProt P9WNZ1, whole entry: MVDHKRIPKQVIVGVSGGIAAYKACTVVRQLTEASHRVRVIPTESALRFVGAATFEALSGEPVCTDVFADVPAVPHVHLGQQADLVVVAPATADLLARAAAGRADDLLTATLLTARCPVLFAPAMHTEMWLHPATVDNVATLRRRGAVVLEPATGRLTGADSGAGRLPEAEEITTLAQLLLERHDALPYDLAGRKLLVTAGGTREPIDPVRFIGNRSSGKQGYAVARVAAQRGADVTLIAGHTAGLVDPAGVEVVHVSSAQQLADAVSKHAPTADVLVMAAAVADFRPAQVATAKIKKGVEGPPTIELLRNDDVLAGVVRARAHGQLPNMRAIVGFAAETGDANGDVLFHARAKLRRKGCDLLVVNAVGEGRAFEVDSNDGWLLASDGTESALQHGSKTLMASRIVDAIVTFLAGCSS

Data taken from ChEMBL document CHEMBL3988442, “University of Dundee, Small-Polar-MMV Screening Library” (2021).

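Enzyme assay of CoaBC with a phosphate dye (Biomol Green) read at 650 nm. Target: Coenzyme A biosynthesis protein CoaBC, Mycobacterium tuberculosis (UniProt P9WNZ1). Concentration: 30 µM. Higher reads as stronger inhibition, judged from the few compounds that gave an IC50. Most strong results did not repeat in a second test. Size under these conditions: about 67,000 compounds, about 40 of them at 50% or above in at least one test.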

Each number is a percent effect as filed.
The controls that fix the scale are not given in the record; negative values are as filed.
This is an unselected part of the compounds tested.

| # | SMILES | Percent Effect |
|---|---|---|
| 1 | `O=C(CCc1nccs1)N1CCC(C(=O)O)(c2ccccc2)CC1` | -0.2141 |
| 2 | `Cc1cnc(CN(Cc2ccc(Cl)s2)C2CCN(C)C2)o1` (stereo not shown) | 0.5089 |
| 3 | `COCCN(C)C(=O)Cn1cccc(OC)c1=O` | 8.387 |
| 4 | `CCOc1ccc(C2SCC(=O)Nc3c2c(=O)[nH]n3C(C)C)cc1` (stereo not shown) | -6.053 |
| 5 | `Cc1ccccc1-n1cc(CNc2ncnc3c2CCNCC3)cn1` | 4.337 |
| 6 | `Cc1cccc(CN2CCn3cc(CNC(=O)CC4CC4)nc3C2)n1` | 3.807 |
| 7 | `Cc1cc(-c2ccc(C(C)N3CCCCC3)cc2)cnc1N` (stereo not shown) | -8.71 |
| 8 | `Cc1ccc(CN2CCc3ncc(CNS(C)(=O)=O)n3CC2)o1` | 1.505 |
| 9 | `COc1c(CNCCc2c[nH]c3cc(F)ccc23)c(C(C)C)nn1C` | -1.01 |
| 10 | `COC(=O)C(c1cc(F)ccc1F)N(C)C(=O)c1cnc(C)cn1` (stereo not shown) | -3.851 |
| 11 | `N[C@@H](Cc1ccccc1)c1nnc(S(=O)(=O)Cc2ccccc2)o1` | 0.9685 |
| 12 | `CN1CC2(CCCN(c3cnccn3)C2)OC1=O` (stereo not shown) | 13.2 |
| 13 | `c1cnnc(N2CCCC2CNc2ncnc3c2CCC3)c1` (stereo not shown) | 1.044 |
| 14 | `O=C(O)c1cccnc1N1CCN(Cc2ccc(F)cc2)C(CCO)C1` (stereo not shown) | -0.7212 |
| 15 | `O=C(O)CC1COCCN1Cc1ccccc1OCCc1ccccc1` (stereo not shown) | 6.935 |
| 16 | `COCC(O)CN(C)C(=O)NCc1ccc(S(C)(=O)=O)cc1` (stereo not shown) | 1.408 |
| 17 | `Cc1cc2ccccc2n1CCC(=O)NCCN(C)S(C)(=O)=O` | 4.592 |
| 18 | `CCc1nc(C2CCCN(C(=O)c3ccc(OC)cc3)C2)no1` (stereo not shown) | -0.5222 |
| 19 | `O=C(c1ccncc1)N1CCN2C[C@H](Oc3cccnc3)C[C@H]2C1` | 7.006 |
| 20 | `CC(C)c1ncc(-c2cc(C3CCC3)nc(N)c2C#N)cn1` | 7.407 |
| 21 | `CCc1cnccc1C(=O)NC1CCN(Cc2ccccc2F)CC1` | -0.4854 |
| 22 | `O=C(COc1ccc2c(c1)CCC2)NS(=O)(=O)c1cncc(Br)c1` | -5.959 |
| 23 | `Cn1nccc1-c1cc(C2CCN(S(C)(=O)=O)CC2)ccn1` | -0.618 |
| 24 | `CC(C)c1n[nH]c(C2CN(C(=O)c3cc(C(N)=O)cs3)CCO2)n1` (stereo not shown) | 2.477 |
| 25 | `CC1(C)[C@H]2CC=C(CN3CCCn4nc(C(=O)O)cc4C3)[C@@H]1C2` | 0.2481 |
| 26 | `CN(CCCNC(=O)C1CCCN(C(N)=O)C1)S(C)(=O)=O` (stereo not shown) | 1.901 |
| 27 | `O=c1[nH]c(COc2ccccc2Cl)nc2c1CCNC2` | 4.822 |
| 28 | `O=C(c1sccc1C1CC1)N1CCCN(Cc2cscn2)CC1` | 3.133 |
| 29 | `Cc1cc(C(=O)N2CCCS2(=O)=O)c(C)o1` | 0.9639 |
| 30 | `CN(Cc1c(Cl)ccc2cccnc12)CC(C)(CO)CO` | 8.73 |
| 31 | `O=C1CC[C@H]2[C@H](CCN2C(=O)N2CCCC2)N1Cc1ccncc1` | 5.013 |
| 32 | `CCc1noc(CN(CCc2ccccc2)C2CCN(C)CC2)n1` | 9.565 |
| 33 | `Cc1cnc(NC(=O)c2ccc(C3CCCN3CC(C)C)s2)s1` (stereo not shown) | 1.653 |
| 34 | `CN1CCCCC1Cc1nc(Cc2cccc(F)c2)no1` (stereo not shown) | 3.704 |
| 35 | `O=S(=O)(C1CC1)N1CCC2(CC1)CC(Oc1ccccn1)CO2` (stereo not shown) | -1.961 |
| 36 | `CC1c2ncc(COCC3CC3)n2CCN1C(=O)c1ccn(C)n1` (stereo not shown) | 7.143 |
| 37 | `CC1(C2CCN(CC(N)=O)CC2)CN(Cc2ccccc2)C(=O)CO1` (stereo not shown) | 5.562 |
| 38 | `Nc1nc2c(c(N3CCOCC3)n1)CCN(C(=O)c1ccc[nH]1)CC2` | 0.3367 |
| 39 | `CC(C)c1nc2n(n1)CC(NCc1nc(-c3ccsc3)no1)CC2` (stereo not shown) | -1.512 |
| 40 | `CC(=O)Nc1ccc(CNCc2ccc(CS(C)(=O)=O)cc2)cc1` | 6.615 |
| 41 | `COCCC(=O)N1C[C@H]2CN(Cc3cccnc3)C(=O)[C@H]2C1` | 2.96 |
| 42 | `CCc1ccc(C(NCC(N)=O)C(C)(C)C)o1` (stereo not shown) | 2.381 |
| 43 | `CC(C)CC(=O)Nc1cccc(CNCc2cccs2)c1` | 8.344 |
| 44 | `Cc1ccc(CNC(=O)CN2CCCC(Cn3cncn3)C2)s1` (stereo not shown) | 3.259 |
| 45 | `CCc1nnsc1C(=O)N1CCCC(n2nc(C)nc2C)C1` (stereo not shown) | 5.115 |
| 46 | `COCCN1CCO[C@@H]2CN(S(=O)(=O)c3cccnc3)C[C@@H]2C1` | 2.303 |
| 47 | `CC(C)c1nc(C2CCCN2CCS(C)(=O)=O)no1` (stereo not shown) | 12.92 |
| 48 | `CC(C)(C)c1nc(NS(=O)(=O)c2ccc(F)cc2)no1` | 2.417 |
| 49 | `O=C(N1CCCO1)[C@]12COC[C@H]1CN(Cc1cccnc1)C2` | 2.083 |
| 50 | `Cc1ncsc1C(=O)N(C)Cc1ccccc1` | 7.731 |
| 51 | `CC(=O)NCc1ccc(C(=O)N2CCCC(n3cncn3)C2)o1` (stereo not shown) | -5.855 |
| 52 | `Cc1ccc(C(=O)N2Cc3c(CN4CCCCC4)nn(C)c3C2)cc1F` | -0.2123 |
| 53 | `Cc1nc(C)n(CC(=O)N2CCc3ncc(Cl)cc3C2)n1` | 1.46 |
| 54 | `CN1CCN(c2ccccc2CNC(=O)CSC(F)(F)F)CC1` | 1.025 |
| 55 | `Cc1cnn(CC2CN(CCc3ccccn3)CCO2)c1` (stereo not shown) | 3.435 |
| 56 | `O=C(O)Cn1ccc(=O)c2ccc(Cl)cc21` | -1.928 |
| 57 | `CC(C)N1CCN(CCn2cnc3c(F)cccc3c2=O)CC1` | 5.492 |
| 58 | `CCn1c(NCc2cccnc2)nc2c(C)nn(C)c2c1=O` | -5.774 |
| 59 | `NC(=O)CN(Cc1ncc(-c2ccccc2)o1)C1CCCC1` | 3.439 |
| 60 | `CN(Cc1ccco1)C(=O)CN1CCc2ccccc2C1` | -2.851 |
| 61 | `COc1cc(C2CC(=O)Nc3c2nc2n3CCCC2)cc(OC)c1O` (stereo not shown) | 4.569 |
| 62 | `COc1cccc(CSc2nnc(C)n2CC(N)=O)c1` | 0.128 |
| 63 | `CN(C)C(=O)N1CCO[C@@H]2CC(COCc3cccnc3)C[C@H]21` (stereo partly shown) | 1.22 |
| 64 | `CCN(CC)c1nc2sc(C(=O)N3CCNC(=O)C3)cc2s1` | 5.157 |
| 65 | `CCc1nc(CCNC(=O)C2CCOC2)sc1C` (stereo not shown) | 6.004 |
| 66 | `Cc1ccc(-c2cc(N)c(=O)n(CC(=O)NC3CCCCC3)n2)s1` | -16.94 |
| 67 | `CSc1nccc(N2CCN(C)C3(CCNC(=O)CC3)C2)n1` (stereo not shown) | 1.339 |
| 68 | `O=C(NCc1cccc(N2CC=CC2)c1)NC1CC1` | 1.518 |
| 69 | `CCOCc1nc2c(c(NCCNC(C)=O)n1)CCN(C(C)=O)CC2` | 4.104 |
| 70 | `Cc1noc(C)c1Cn1cc(I)cc(C)c1=O` | -5.353 |
| 71 | `O=C(c1ccc(-n2ccnc2)cc1)N1CCN(c2cnccn2)CC1` | 5.696 |
| 72 | `O=C(O)C1(Oc2ccc(Cl)cc2)CCN(C2CCOCC2)CC1` | -1.928 |
| 73 | `CCc1nc(CN2CCCN(C(=O)c3cnc[nH]3)CC2)cs1` | 8.769 |
| 74 | `CC(C)n1c(=O)nc2n1C(=O)N(c1ccc(Cl)cc1)C2` | 0.7576 |
| 75 | `COc1ccc(-c2cc3cccn(CC(=O)N4CCOCC4)c-3n2)cc1` | 4.895 |
| 76 | `CC(C)CN(CC(C)C)Cn1ncc2cn(-c3ccccc3)nc2c1=O` | 5.652 |
| 77 | `CCC(C(=O)N(C)C)n1ccc2ncccc2c1=O` (stereo not shown) | 5.957 |
| 78 | `O=C(O)C1(Oc2ccccc2)CCN(c2ccncc2)CC1` | 4.704 |
| 79 | `c1nc(-c2nc(C3CCOC3)no2)cs1` (stereo not shown) | 9.631 |
| 80 | `CCOCC1CN(C(=O)c2ccoc2)Cc2nn(C)cc21` (stereo not shown) | 9.121 |
| 81 | `Cc1cc(C(C)(O)CNC(=O)CCOCC(C)C)c(C)o1` (stereo not shown) | 0.6424 |
| 82 | `CCNC(=O)N1C[C@@H](NC(C)=O)[C@H](c2ccc(C)o2)C1` | 2.644 |
| 83 | `O=C(NCc1cn2c(n1)SCC2)c1ccc(CN2CCCCC2)cc1` | 7.431 |
| 84 | `COCCN1CCC(CN(CC2CCCO2)C(=O)Cc2cccs2)CC1` (stereo not shown) | 2.768 |
| 85 | `Cc1cc(Nc2cnccn2)nc(C2CCCN(CCO)C2)n1` (stereo not shown) | 9.324 |
| 86 | `CCc1nnc(Nc2cc(C)nc(C3CN(C(C)=O)CCO3)c2)s1` (stereo not shown) | -1.48 |
| 87 | `CCC(O)CNC(=O)c1coc(COc2ccc3sc(C)nc3c2)n1` (stereo not shown) | -10.02 |
| 88 | `Fc1cccc(N2CCCC3(CN(Cc4ccco4)CCO3)C2)c1` (stereo not shown) | 3.585 |
| 89 | `O=C(c1cnc(C2CC2)nc1)N1CCCC(c2nccs2)C1` (stereo not shown) | -0.4785 |
| 90 | `CS(=O)(=O)N1CCC(C(=O)NC(Cc2ccsc2)c2ccccn2)CC1` (stereo not shown) | -6.667 |

5 of the entries, repeated:

SMILES,Percent Effect
CC1(C)[C@H]2CC=C(CN3CCCn4nc(C(=O)O)cc4C3)[C@@H]1C2,0.2481
Cc1ccc(C(=O)N2Cc3c(CN4CCCCC4)nn(C)c3C2)cc1F,-0.2123
c1cnnc(N2CCCC2CNc2ncnc3c2CCC3)c1 (stereo not shown),1.044
O=C(c1ccc(-n2ccnc2)cc1)N1CCN(c2cnccn2)CC1,5.696
O=C(c1cnc(C2CC2)nc1)N1CCCC(c2nccs2)C1 (stereo not shown),-0.4785